Data set [1] can be described thus: Evaluation by trained and/or certified flavor or fragrance chemists or master perfumers; categorization by commercial prospect. As to conditions: for Rating (category of commercial prospect): evaluation by trained flavor or fragrance chemists or master perfumers; for Rating: category of commercial prospect, (A) highest > (B) > (C) > (D) lowest, (E) requires further study.

In another data set the test system is odor evaluation panel. Put plainly: Odor evaluation panel rating of odorants by Rate-All-That-Apply (RATA) method with 55-word odor lexicon, plus intensity and pleasantness. More on the design: species or system human. Particulars: for Floral: mean panelist score for odor label floral (RATA); for Fruity: mean panelist score for odor label fruity (RATA); for Spicy: mean panelist score for odor label spicy (RATA); for Sweet: mean panelist score for odor label sweet (RATA); for Pleasantness: mean panelist score for odor pleasantness.

As for `CCCCCCCCCCS` [Compound 861, decane-1-thiol], in data set [1], the “Rating (category of commercial prospect)” value is on record as “(B)”. Besides, in the data set with odor evaluation panel, the Floral stood at 0.222, the Fruity is on record as 0, the Spicy stood at 0.056 and the Sweet is 0.139.

`CC1=NC(C)(C)CO1` [Compound 317, 2,4,4-trimethyl-5H-1,3-oxazole]: the Rating entry in data set [1] is given as “(D)”. Moreover, in the data set with odor evaluation panel, the Floral amounted to 0.29, the Fruity was 0.742, the Spicy was 0.097 and the Sweet came out at 0.645. Besides, the Pleasantness in the data set on odor evaluation panel was found to be 4.623.

`CC1(C)CC(=O)CC(C)(C)N1` [Compound 210, 2,2,6,6-tetramethylpiperidin-4-one]: the Rating entry in data set [1] is reported as “(D)”. For the same compound, in the data set on odor evaluation panel, the Floral worked out at 0, the Fruity stood at 0.057, the Spicy was determined as 0.114 and the Sweet is 0.114. The Pleasantness in the data set on odor evaluation panel is 2.991.

As to `NCCCCCCCCCCCCN` [Compound 96, dodecane-1,12-diamine], in data set [1], the Rating result is “(D)”. Besides, in the data set with odor evaluation panel, the Floral was determined as 0.267, the Fruity came to 0, the Spicy is recorded as 0 and the Sweet is on record as 0.267. Moreover, in the data set on odor evaluation panel, the Pleasantness amounted to 4.407.

For `CC1(C)Cc2cccc(O)c2O1` [Compound 963, 2,2-dimethyl-3H-1-benzofuran-7-ol], the “Rating (category of commercial prospect)” value in data set [1] is on record as “(B)”. In the data set with odor evaluation panel, the Floral is recorded as 0, the Fruity was found to be 0, the Spicy is reported as 0.167 and the Sweet turned out to be 0.194.

Turning to `CC(C)(C)CC(=O)O` [Compound 786, 3,3-dimethylbutanoic acid], the “Rating (category of commercial prospect)” value in data set [1] was “(D)”. In the data set with odor evaluation panel, the Floral was 0.059, the Fruity came out at 1.353, the Spicy worked out at 0 and the Sweet amounted to 0.912. For the same compound, the Pleasantness in the data set with odor evaluation panel is listed as 4.409.

As to `CCOC(=O)CC(=O)C1CC1` [Compound 505, ethyl 3-cyclopropyl-3-oxopropanoate], in data set [1], the Rating entry was “(A)”. In addition, in the data set with odor evaluation panel, the Floral is listed as 0.156, the Fruity was determined as 1.906, the Spicy was found to be 0 and the Sweet turned out to be 1.844. For the same compound, the Pleasantness in the data set with odor evaluation panel is reported as 6.553.

Turning to `Cc1ccc(C#N)n1C` [Compound 402, 1,5-dimethylpyrrole-2-carbonitrile], in data set [1], the Rating result is listed as “(A)”. For the same compound, in the data set with odor evaluation panel, the Floral came out at 0.645, the Fruity is 0.581, the Spicy came out at 0.71 and the Sweet was found to be 2.194. Further, the Pleasantness with odor evaluation panel is recorded as 6.

Consider `c1ccc2ocnc2c1` [Compound 926, 1,3-benzoxazole], for which the “Rating (category of commercial prospect)” value in data set [1] is “(A)”. Besides, in the data set on odor evaluation panel, the Floral is on record as 0.306, the Fruity is 0.417, the Spicy was 0 and the Sweet amounted to 1.167.

As to `CNc1ccccc1C(=O)O` [Compound 698, 2-(methylamino)benzoic acid], the “Rating (category of commercial prospect)” value in data set [1] is listed as “(D)”. In the data set on odor evaluation panel, the Floral turned out to be 0.219, the Fruity is recorded as 0, the Spicy was found to be 0.031 and the Sweet came to 0.375. Moreover, the Pleasantness in the data set with odor evaluation panel came out at 5.197.

As to `Nc1ccccc1-c1ccccc1` [Compound 551, 2-phenylaniline], in data set [1], the Rating result is recorded as “(D)”. For the same compound, in the data set on odor evaluation panel, the Floral stood at 0.188, the Fruity was 0.25, the Spicy amounted to 0.281 and the Sweet is 0.5. Further, the Pleasantness in the data set on odor evaluation panel amounted to 4.206.

On to `Cc1nc2cc(C)c(C)cc2s1` [Compound 260, 2,5,6-trimethyl-1,3-benzothiazole], for which, in data set [1], the Rating entry is “(D)”. Also, in the data set on odor evaluation panel, the Floral came to 0.406, the Fruity is reported as 0.156, the Spicy is listed as 0.094 and the Sweet was 0.688. Further, the Pleasantness in the data set with odor evaluation panel was found to be 5.097.

With `O=C(O)CCCC1CCCCC1` [Compound 330, 4-cyclohexylbutanoic acid], the Rating result in data set [1] is reported as “(D)”. Besides, in the data set with odor evaluation panel, the Floral is listed as 0.125, the Fruity was found to be 0.094, the Spicy is recorded as 0.688 and the Sweet amounted to 0.406. Besides, the Pleasantness in the data set with odor evaluation panel is on record as 4.425.

On to “[(2S)-1-methoxy-3-[(2-methylpropan-2-yl)oxy]-1-oxopropan-2-yl]azanium [Compound 314]”, for which the Rating entry in data set [1] is on record as “(A)”. In the data set with odor evaluation panel, the Floral turned out to be 0.167, the Fruity stood at 0.267, the Spicy is 0.1 and the Sweet is listed as 0.833. In addition, in the data set with odor evaluation panel, the Pleasantness is 5.167.

Regarding `CC(=Cc1ccccc1)[N+](=O)[O-]` [Compound 721, 1-phenyl-2-nitropropene], the “Rating (category of commercial prospect)” value in data set [1] is recorded as “(D)”. Also, in the data set on odor evaluation panel, the Floral is listed as 0.543, the Fruity was 0.229, the Spicy came to 1.971 and the Sweet was 1.8. For the same compound, in the data set on odor evaluation panel, the Pleasantness is 6.391.

As for `CCCCC(=O)c1ccc(C)cc1` [Compound 257, 1-(4-methylphenyl)pentan-1-one], the Rating entry in data set [1] was “(C)”. In addition, in the data set with odor evaluation panel, the Floral was determined as 0.867, the Fruity is listed as 2.4, the Spicy came to 0.4 and the Sweet stood at 1.833. For the same compound, the Pleasantness in the data set on odor evaluation panel is reported as 7.283.

Regarding `CC(=O)c1ccsc1` [Compound 453, 1-thiophen-3-ylethanone], the Rating result in data set [1] is “(B)”. Besides, in the data set with odor evaluation panel, the Floral worked out at 0.226, the Fruity came out at 0.194, the Spicy came out at 0.161 and the Sweet was 1.129. Besides, the Pleasantness in the data set on odor evaluation panel was 5.271.

In the case of `CNCCC(O)c1ccccc1` (stereo not drawn) [Compound 512, 3-(methylamino)-1-phenylpropan-1-ol], in data set [1], the Rating result was “(D)”. For the same compound, in the data set with odor evaluation panel, the Floral was 0, the Fruity was 0.031, the Spicy turned out to be 0.188 and the Sweet stood at 0.031. Moreover, the Pleasantness with odor evaluation panel came to 4.806.

In the case of `CC1=CC(=O)C(C)=C(C)C1=O` [Compound 183, 2,3,5-trimethylcyclohexa-2,5-diene-1,4-dione], in data set [1], the Rating result is “(B)”. In the data set on odor evaluation panel, the Floral turned out to be 0.469, the Fruity came to 0.188, the Spicy came to 0.375 and the Sweet worked out at 0.844. Moreover, the Pleasantness in the data set on odor evaluation panel is on record as 4.166.

Regarding `Cc1cc(C)c(C)c(C)c1C` [Compound 61, 1,2,3,4,5-pentamethylbenzene], the Rating entry in data set [1] is reported as “(A)”. Further, in the data set with odor evaluation panel, the Floral is reported as 0.226, the Fruity was 0.032, the Spicy amounted to 0.258 and the Sweet is listed as 0.097. Also, the Pleasantness in the data set with odor evaluation panel is reported as 3.997.

`CC[C@@H](N)c1ccccc1` [Compound 578, (1R)-1-phenylpropan-1-amine]: in data set [1], the “Rating (category of commercial prospect)” value is recorded as “(D)”. Also, in the data set with odor evaluation panel, the Floral is recorded as 0.286, the Fruity came to 0, the Spicy is reported as 0.114 and the Sweet was 0.229. For the same compound, in the data set on odor evaluation panel, the Pleasantness was determined as 3.051.
